Measured values taken from the supplement of paper PMC3334620.
In all, about 33,000 sequences were measured (“E-score (-0.5 to 0.5)”: median about -0.0014, highest 2% from about 0.25 on). Some of the results follow.

Molecular target: T1, Cad1 (UniProt P24813)
T1 sequence: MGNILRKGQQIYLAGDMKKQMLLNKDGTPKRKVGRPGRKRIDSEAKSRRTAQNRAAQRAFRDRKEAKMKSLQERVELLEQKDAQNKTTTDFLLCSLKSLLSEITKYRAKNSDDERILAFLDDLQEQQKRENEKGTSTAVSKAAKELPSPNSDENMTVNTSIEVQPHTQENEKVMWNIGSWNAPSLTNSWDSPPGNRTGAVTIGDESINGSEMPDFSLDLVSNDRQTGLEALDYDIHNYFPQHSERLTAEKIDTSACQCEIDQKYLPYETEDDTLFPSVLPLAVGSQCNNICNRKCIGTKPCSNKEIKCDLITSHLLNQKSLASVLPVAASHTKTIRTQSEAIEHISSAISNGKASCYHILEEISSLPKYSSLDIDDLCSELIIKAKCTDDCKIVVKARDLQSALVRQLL
Assay: PBM E-score (8-mer binding enrichment) (E-score (-0.5 to 0.5)); higher = stronger / more preferred TF binding
Conditions: protein concentration: 100 nM; construct: GST-full length
How it was run: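 E-scores (a modified Wilcoxon-Mann-Whitney statistic) were assigned by the Universal PBM Analysis Suite to every ungapped eight-base word pooled with its reverse complement. The input came from universal all-10-mer Agilent arrays made double-stranded by primer extension and probed with GST-tagged yeast transcription factors at about 100-200 nM. Fluorescent anti-GST detected bound protein, and masliner normalised the scans.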

In order of rising “PBM E-score” value:
1. AGACCTCC  -0.33
2. GCCCGTCA  -0.264
3. GAGCCCTA  -0.254
4. AGCAGGAG  -0.238
5. TAGAGCCA  -0.227
6. AGGTACGA  -0.2
7. CTTTTGAC  -0.196
8. CATGCTCC  -0.194
9. ACCGGCAG  -0.194
10. CCCGTCAA  -0.194
11. AACGACTC  -0.174
12. AGTCCCAT  -0.17
13. CTACATTC  -0.163
14. CTATTCCC  -0.159
15. GCGGCCCA  -0.154
16. CCACCACA  -0.15
17. ACAAGCAG  -0.138
18. CATCCATC  -0.124
19. AGAGTCAG  -0.12
20. AGGCGTAG  -0.118
21. AGTAGACA  -0.117
22. CGACCAAG  -0.114
23. GGAAAACC  -0.112
24. GCTACACA  -0.108
25. ACGGACGT  -0.105
26. CATGTTCA  -0.0873
27. AAACAGCT  -0.0841
28. CCTTGACA  -0.082
29. ACGTACGC  -0.0765
30. CGCTGTTA  -0.0692
31. CACTTGCG  -0.0575
32. ACAAGGAC  -0.0567
33. GACGTTCA  -0.0546
34. GAAGCAGA  -0.0537
35. CAGTGGAG  -0.0533
36. GAGAATCA  -0.0529
37. AATAGAAA  -0.0491
38. TGGAAAAA  -0.0449
39. GAAGCCAC  -0.0422
40. CACTTCTG  -0.0379
41. GTGTCGAA  -0.0248
42. CAAGCATC  -0.0225
43. CATTTTTA  -0.0201
44. AACCCTGG  -0.00675
45. CTGGAAAC  -0.00171
46. AGAACAGA  0.00299
47. AGTGCGGG  0.00669
48. CGTATACA  0.0135
49. AATGAATC  0.0171
50. CACACTTC  0.0239
51. CTCGTCTC  0.0257
52. CAATTGCA  0.0314
53. CCCGACCA  0.0324
54. GCTACGAC  0.0331
55. TGCTTTAA  0.034
56. AGTACTAG  0.0451
57. GTTCTTGA  0.0467
58. CGCTCGGC  0.0494
59. CTTTTTGA  0.0534
60. GTCCGCAC  0.0546
61. ACTTAGCC  0.0594
62. CATTGCCG  0.0606
63. CCCTTACA  0.0712
64. AACAAAGG  0.0724
65. TCTGTCCA  0.075
66. GTAAGTTA  0.0778
67. CACAAAGC  0.0826
68. ATCGTTCG  0.0847
69. CCGAGTGC  0.089
70. GATGAGCA  0.1
71. ATTGGGAA  0.104
72. AATGTGTG  0.106
73. AGGGAATA  0.108
74. CATGAGTC  0.12
75. AGATGATA  0.137
76. ATCTGGTA  0.139
77. AATCCTGA  0.142
78. ATTGTGTA  0.142
79. AGCTGCTA  0.148
80. TATCCGCA  0.149
81. CCGACTTA  0.151
82. CGGCTTCA  0.173
83. ATGTGCGC  0.173
84. AGTGGGTG  0.174
85. AACCTAAA  0.176
86. ACATATCT  0.192
87. GATGAATA  0.193
88. CGTTATTA  0.202
89. CAGCGCGC  0.203
90. CACGAATC  0.205
91. ATGCATGG  0.224
92. GCGTCGAC  0.252
93. CACTAATC  0.262
94. TATATATA  0.377
